Consider one molecule from US20200055934A1.

Chains of the proteins cited; added tags and fusions are not shown. Lines headed by an entry give the natural chain unless they say otherwise; changes in a name come on top.
UniProt Q15109: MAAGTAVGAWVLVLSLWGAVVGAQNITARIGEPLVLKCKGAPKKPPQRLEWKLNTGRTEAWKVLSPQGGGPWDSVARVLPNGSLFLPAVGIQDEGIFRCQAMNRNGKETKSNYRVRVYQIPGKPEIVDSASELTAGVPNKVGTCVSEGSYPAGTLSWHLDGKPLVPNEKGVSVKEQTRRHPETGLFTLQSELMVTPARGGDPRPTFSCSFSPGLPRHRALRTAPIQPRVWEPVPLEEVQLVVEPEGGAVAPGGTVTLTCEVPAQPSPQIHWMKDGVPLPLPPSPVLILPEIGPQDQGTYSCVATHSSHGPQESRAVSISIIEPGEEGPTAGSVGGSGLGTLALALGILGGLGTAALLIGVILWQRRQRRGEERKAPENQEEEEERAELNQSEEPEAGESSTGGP

In this assay the target is Receptor for Advanced Glycation Endproducts (RAGE), human, full length (human) (UniProt Q15109). Description: stated in the internalisation example; binding assay not described.

Results are given in words; binding and its absence hold for the method and conditions named. Some results given as binding are weak or reduced against the parent protein; the word gives no strength.

B1: AA4 anti-RAGE antibody (antibody, V domains shown)
VH: QVQLQQSGAELVKPGASVKLSCKTSGYTFTNYYIYWVIQRPGHGLEWIGEINPSNGGTNFSERFKSRAKLTVDKPSSTAYMQLSSLTSDDSAVYYCTTNFDYWGQGSTLTVSS
VL: DVLMTQTPLSLPVSLGDQASMSCRSSQNIVHNNGNTYLQWYLQKPGQSPKLLIYQVSNRFFGVPDRFSGSGSGTDFTLKISRVEAEDLGVYYCFQGSHLPLTFGAGTKLELK
For B1, the binding result is recorded as “binds”.
